Measured values reported in PMC3640046, “Structural Insights into a Wildtype Domain of the Oncoprotein E6 and Its Interaction with a PDZ Domain” (PLoS ONE, 2013).
No constants are given. Whether binding was seen depends on the method and setting.

Key:
[1] = molecular target: second (C-terminal) zinc-binding domain of HPV 51 E6 (human papilloma virus type 51 (HPV 51)) (UniProt P26554); assay: SEC; analytical gel-filtration of 51Z2 on a TSK gel G3000SWxl column, calibrated with reference proteins; both purified
[2] = molecular target: second (C-terminal) zinc-binding domain of HPV 51 E6 (human papilloma virus type 51 (HPV 51)) (UniProt P26554); assay: dynamic light scattering; hydrodynamic radius of purified 51Z2; both purified

In the case of “second (C-terminal) zinc-binding domain of HPV 51 E6 (from UniProt P26554 80-151) (domain or fragment)”, the binding [1] is reported as “no binding” and the binding [2] is reported as “no binding”.
